# Reference: patent US4959363A, “Quinolonecarboxamide compounds, their preparation and use as antivirals” (Sterling Drug Inc., priority 1989, dated 1990)
# The name of at least one read-out is uncertain.
# Tested on: herpes simplex virus type 2 (Curtis strain)
# Experiment: Plaque Reduction Assay in Vero Cells (in vitro antiviral)
# Format: cell-based
# Conditions: HSV-2 plaque reduction, 3 days, NA = Not active at dose levels tested
substance,measurement,value
"1,4-Dihydro-1-(4-fluorophenyl)-7-(3-methyl-5-thiazolyl)-4-oxo-3-quinolinecarboxamide [Example 37d]",In Vitro MIC (Minimum inhibitory concentration),0.25 µg/mL
